In the data set the test system is monoclonal antibody. Briefly: Chromatographic evaluation of ligands coupled on Fractogel (packed column, load, wash, elution, regeneration). The data set is classed as binding. The protocol:
The new resins were assessed in packed mode. 1 mL of each resin was packed into an HR5 chromatography column (GE Healthcare) applying standard conditions.
Before loading the matrix with the monoclonal antibody, the column was equilibrated with 6 column volumes equilibration buffer containing 50 mM Na-phosphate (pH 7.0; cond. 9 mS cm^−1). After equilibration a monoclonal antibody solution in equilibration buffer (protein conc. 1.14 mg/mL) was loaded to the column. Subsequently, the column was washed with 6 column volumes of equilibration buffer and eluted with 6 column volumes of elution buffer 1 (25 mM sodium acetate pH 5.5; cond. 1.8 mS cm^−1) and 6 column volumes of elution buffer 2 (25 mM sodium acetate buffer pH 3.8; 0.5 mS cm^−1). The column was stored in […] ethanol. Afterwards, the matrix was regenerated with 40 mM phosphoric acid and 20 mM sodium hydroxid. The flow rate for equilibration, load and wash was 60 cm/h, elution and regeneration was performed at a flow rate of 30 cm/h.

[1] abbreviates: process step Elution 1, 25 mM sodium acetate pH 5.5.
The mark [2] stands for this setting: process step Elution 2, 25 mM sodium acetate buffer pH 3.8.
Setting [3] is: process step Flow trough, ligand coupled on Fractogel.
Where [4] appears, read: process step Wash, equilibration buffer pH 7.0.

Take DBHBA-(L)Asn-(L)Arg-Gly [LII#55]: the “Step yield [%]” value under setting [1] is listed as 11.8%; the “Step yield [%]” value under setting [2] was 57.9%; the “Step yield [%]” value under setting [3] is listed as 17.0%; the “Step yield [%]” value (process step Regeneration) is 10.1%; the “Step yield [%]” value under setting [4] was 1.20%. The “mAb content [mg/mL]” value is listed as 0.19 mg/mL under setting [1]; 1.05 mg/mL under setting [2]; 0.19 mg/mL under setting [3]; 0.49 mg/mL (process step Regeneration); 0.02 mg/mL under setting [4]. Besides, the “mAb content [mg]” value is, setting by setting: under setting [1], 0.86 mg; under setting [2], 4.2 mg; under setting [3], 1.24 mg; (process step Regeneration) 0.74 mg; under setting [4], 0.09 mg.
On to D-Phe-(L)Arg-(L)Arg-Gly [LI#16], for which the “Step yield [%]” value runs as follows: under setting [1], 73.4%; under setting [2], 20.5%; under setting [3], 0.9%; (process step Regeneration) 2.1%; under setting [4], 0.0%. Besides, the “mAb content [mg/mL]” value runs as follows: under setting [1], 1.13 mg/mL; under setting [2], 0.35 mg/mL; under setting [3], 0.01 mg/mL; (process step Regeneration) 0.11 mg/mL; under setting [4], 0.00 mg/mL. Besides, the “mAb content [mg]” value reads like this: under setting [1], 5.65 mg; under setting [2], 1.58 mg; under setting [3], 0.07 mg; (process step Regeneration) 0.17 mg; under setting [4], 0.00 mg.

Values taken from patent US20080311681A1, “Antibody Binding Affinity Ligands” (priority 2004, published 2008).
